From patent US20120028271A1
These are yes or no findings as the source states them, for the method shown. In cells and extracts the contact can be indirect. Some entries that bind do so weakly or less than the wild type.

By UniProt entry, the sequences of proteins in these tests, tags left out. Where a name states a change or a piece, a line headed by the entry shows the natural chain unless it says otherwise. Residues count along the entry.
UniProt P54252: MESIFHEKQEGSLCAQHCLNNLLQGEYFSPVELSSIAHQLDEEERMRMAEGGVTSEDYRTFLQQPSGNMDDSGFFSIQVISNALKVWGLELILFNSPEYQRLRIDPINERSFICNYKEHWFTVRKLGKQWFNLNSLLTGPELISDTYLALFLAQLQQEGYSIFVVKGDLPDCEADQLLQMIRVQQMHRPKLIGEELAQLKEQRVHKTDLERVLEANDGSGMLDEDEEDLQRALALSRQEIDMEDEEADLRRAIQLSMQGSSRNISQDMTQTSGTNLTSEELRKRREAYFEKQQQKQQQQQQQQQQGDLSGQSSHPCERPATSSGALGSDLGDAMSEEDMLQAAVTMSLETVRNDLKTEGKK
UniProt P08670, residues 2-466: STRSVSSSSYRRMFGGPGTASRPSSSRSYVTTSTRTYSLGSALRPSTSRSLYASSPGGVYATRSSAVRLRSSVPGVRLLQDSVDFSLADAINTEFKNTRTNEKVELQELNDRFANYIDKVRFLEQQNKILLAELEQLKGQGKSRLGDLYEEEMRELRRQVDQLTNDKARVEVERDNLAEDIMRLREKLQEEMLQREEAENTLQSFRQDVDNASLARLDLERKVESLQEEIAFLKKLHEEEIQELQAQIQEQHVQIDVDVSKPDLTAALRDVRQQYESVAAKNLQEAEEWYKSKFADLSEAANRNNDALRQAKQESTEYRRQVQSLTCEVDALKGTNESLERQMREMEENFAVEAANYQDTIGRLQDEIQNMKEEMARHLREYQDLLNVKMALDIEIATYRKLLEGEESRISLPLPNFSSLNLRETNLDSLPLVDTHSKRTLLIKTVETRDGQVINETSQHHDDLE
UniProt P54727: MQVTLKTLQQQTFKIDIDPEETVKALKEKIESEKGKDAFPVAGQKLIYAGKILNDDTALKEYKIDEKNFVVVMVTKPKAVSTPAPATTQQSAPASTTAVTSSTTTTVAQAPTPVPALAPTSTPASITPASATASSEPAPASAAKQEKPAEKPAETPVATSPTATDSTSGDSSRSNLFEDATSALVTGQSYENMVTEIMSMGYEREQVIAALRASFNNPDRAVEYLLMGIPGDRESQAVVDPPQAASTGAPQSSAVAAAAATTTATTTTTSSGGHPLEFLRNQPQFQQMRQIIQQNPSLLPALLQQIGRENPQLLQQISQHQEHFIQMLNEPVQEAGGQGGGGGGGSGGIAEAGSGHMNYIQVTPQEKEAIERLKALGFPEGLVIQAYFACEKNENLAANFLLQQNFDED
UniProt P54725: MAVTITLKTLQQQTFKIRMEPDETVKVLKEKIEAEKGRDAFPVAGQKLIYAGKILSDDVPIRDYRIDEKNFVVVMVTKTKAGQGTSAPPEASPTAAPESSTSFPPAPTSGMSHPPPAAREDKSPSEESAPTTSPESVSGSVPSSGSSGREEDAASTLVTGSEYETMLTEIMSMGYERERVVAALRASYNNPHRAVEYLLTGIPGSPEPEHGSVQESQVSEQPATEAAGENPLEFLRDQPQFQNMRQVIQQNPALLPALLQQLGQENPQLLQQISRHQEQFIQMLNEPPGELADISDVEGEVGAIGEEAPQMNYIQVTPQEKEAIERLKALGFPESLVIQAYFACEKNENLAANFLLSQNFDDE

Experiments:
Ataxin-3 [1] = target: Ataxin-3 (UniProt P54252); assay: GST pull-down from cell extracts, immunoblot with antibodies against Ataxin-3
vimentin (human) = vimentin (human) (UniProt P08670); assay: GST pull-down from cell extracts, immunoblot with antibodies against vimentin
Ataxin-3 [2] = target: Ataxin-3 (UniProt P54252); assay: GST pull-down from cell extracts, immunoblot
Ataxin-3 [3] = target: Ataxin-3 (UniProt P54252); assay: pull-down with full-length GST fusion from protein extracts, immunoblot

“GST-UbL-B (UbL domain of human hHR23B, residues 1-78) (from UniProt P54727 1-78)” was tested, and the binding (Ataxin-3 [1]) was “binds”, the binding (vimentin (human)) was “binds” and the binding (Ataxin-3 [2]) was “binds”.
In the case of “GST-UbL-B^1-76 (UbL domain of hHR23B ending in Val-Val-Val-Met-Val-Thr-Lys) (from UniProt P54727 1-76)”, the binding (Ataxin-3 [2]) is reported as “binds”.
For “full-length GST-tagged hHR23A (from UniProt P54725 1-363)”, the binding (Ataxin-3 [3]) was “binds”.
For “full-length GST-tagged hHR23B (from UniProt P54727 1-409)”, the binding (Ataxin-3 [3]) was “binds”.
